Results taken from publication PMC9997026.
Results are given in words; binding and its absence hold for the method and conditions named. In cells and extracts the contact can be indirect. Some entries that bind do so weakly or less than the wild type.

The chains behind the UniProt entries cited, without tags or fusion partners.
UniProt P27695: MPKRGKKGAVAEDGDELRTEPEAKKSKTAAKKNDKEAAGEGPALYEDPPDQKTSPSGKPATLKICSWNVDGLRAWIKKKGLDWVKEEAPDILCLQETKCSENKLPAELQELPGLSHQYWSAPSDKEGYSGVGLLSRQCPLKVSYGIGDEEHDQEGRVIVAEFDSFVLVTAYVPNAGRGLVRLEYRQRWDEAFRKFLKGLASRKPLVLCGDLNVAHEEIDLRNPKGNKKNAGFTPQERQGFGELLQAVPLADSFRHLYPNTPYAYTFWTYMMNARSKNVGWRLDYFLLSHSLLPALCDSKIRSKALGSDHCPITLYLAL
UniProt P78527: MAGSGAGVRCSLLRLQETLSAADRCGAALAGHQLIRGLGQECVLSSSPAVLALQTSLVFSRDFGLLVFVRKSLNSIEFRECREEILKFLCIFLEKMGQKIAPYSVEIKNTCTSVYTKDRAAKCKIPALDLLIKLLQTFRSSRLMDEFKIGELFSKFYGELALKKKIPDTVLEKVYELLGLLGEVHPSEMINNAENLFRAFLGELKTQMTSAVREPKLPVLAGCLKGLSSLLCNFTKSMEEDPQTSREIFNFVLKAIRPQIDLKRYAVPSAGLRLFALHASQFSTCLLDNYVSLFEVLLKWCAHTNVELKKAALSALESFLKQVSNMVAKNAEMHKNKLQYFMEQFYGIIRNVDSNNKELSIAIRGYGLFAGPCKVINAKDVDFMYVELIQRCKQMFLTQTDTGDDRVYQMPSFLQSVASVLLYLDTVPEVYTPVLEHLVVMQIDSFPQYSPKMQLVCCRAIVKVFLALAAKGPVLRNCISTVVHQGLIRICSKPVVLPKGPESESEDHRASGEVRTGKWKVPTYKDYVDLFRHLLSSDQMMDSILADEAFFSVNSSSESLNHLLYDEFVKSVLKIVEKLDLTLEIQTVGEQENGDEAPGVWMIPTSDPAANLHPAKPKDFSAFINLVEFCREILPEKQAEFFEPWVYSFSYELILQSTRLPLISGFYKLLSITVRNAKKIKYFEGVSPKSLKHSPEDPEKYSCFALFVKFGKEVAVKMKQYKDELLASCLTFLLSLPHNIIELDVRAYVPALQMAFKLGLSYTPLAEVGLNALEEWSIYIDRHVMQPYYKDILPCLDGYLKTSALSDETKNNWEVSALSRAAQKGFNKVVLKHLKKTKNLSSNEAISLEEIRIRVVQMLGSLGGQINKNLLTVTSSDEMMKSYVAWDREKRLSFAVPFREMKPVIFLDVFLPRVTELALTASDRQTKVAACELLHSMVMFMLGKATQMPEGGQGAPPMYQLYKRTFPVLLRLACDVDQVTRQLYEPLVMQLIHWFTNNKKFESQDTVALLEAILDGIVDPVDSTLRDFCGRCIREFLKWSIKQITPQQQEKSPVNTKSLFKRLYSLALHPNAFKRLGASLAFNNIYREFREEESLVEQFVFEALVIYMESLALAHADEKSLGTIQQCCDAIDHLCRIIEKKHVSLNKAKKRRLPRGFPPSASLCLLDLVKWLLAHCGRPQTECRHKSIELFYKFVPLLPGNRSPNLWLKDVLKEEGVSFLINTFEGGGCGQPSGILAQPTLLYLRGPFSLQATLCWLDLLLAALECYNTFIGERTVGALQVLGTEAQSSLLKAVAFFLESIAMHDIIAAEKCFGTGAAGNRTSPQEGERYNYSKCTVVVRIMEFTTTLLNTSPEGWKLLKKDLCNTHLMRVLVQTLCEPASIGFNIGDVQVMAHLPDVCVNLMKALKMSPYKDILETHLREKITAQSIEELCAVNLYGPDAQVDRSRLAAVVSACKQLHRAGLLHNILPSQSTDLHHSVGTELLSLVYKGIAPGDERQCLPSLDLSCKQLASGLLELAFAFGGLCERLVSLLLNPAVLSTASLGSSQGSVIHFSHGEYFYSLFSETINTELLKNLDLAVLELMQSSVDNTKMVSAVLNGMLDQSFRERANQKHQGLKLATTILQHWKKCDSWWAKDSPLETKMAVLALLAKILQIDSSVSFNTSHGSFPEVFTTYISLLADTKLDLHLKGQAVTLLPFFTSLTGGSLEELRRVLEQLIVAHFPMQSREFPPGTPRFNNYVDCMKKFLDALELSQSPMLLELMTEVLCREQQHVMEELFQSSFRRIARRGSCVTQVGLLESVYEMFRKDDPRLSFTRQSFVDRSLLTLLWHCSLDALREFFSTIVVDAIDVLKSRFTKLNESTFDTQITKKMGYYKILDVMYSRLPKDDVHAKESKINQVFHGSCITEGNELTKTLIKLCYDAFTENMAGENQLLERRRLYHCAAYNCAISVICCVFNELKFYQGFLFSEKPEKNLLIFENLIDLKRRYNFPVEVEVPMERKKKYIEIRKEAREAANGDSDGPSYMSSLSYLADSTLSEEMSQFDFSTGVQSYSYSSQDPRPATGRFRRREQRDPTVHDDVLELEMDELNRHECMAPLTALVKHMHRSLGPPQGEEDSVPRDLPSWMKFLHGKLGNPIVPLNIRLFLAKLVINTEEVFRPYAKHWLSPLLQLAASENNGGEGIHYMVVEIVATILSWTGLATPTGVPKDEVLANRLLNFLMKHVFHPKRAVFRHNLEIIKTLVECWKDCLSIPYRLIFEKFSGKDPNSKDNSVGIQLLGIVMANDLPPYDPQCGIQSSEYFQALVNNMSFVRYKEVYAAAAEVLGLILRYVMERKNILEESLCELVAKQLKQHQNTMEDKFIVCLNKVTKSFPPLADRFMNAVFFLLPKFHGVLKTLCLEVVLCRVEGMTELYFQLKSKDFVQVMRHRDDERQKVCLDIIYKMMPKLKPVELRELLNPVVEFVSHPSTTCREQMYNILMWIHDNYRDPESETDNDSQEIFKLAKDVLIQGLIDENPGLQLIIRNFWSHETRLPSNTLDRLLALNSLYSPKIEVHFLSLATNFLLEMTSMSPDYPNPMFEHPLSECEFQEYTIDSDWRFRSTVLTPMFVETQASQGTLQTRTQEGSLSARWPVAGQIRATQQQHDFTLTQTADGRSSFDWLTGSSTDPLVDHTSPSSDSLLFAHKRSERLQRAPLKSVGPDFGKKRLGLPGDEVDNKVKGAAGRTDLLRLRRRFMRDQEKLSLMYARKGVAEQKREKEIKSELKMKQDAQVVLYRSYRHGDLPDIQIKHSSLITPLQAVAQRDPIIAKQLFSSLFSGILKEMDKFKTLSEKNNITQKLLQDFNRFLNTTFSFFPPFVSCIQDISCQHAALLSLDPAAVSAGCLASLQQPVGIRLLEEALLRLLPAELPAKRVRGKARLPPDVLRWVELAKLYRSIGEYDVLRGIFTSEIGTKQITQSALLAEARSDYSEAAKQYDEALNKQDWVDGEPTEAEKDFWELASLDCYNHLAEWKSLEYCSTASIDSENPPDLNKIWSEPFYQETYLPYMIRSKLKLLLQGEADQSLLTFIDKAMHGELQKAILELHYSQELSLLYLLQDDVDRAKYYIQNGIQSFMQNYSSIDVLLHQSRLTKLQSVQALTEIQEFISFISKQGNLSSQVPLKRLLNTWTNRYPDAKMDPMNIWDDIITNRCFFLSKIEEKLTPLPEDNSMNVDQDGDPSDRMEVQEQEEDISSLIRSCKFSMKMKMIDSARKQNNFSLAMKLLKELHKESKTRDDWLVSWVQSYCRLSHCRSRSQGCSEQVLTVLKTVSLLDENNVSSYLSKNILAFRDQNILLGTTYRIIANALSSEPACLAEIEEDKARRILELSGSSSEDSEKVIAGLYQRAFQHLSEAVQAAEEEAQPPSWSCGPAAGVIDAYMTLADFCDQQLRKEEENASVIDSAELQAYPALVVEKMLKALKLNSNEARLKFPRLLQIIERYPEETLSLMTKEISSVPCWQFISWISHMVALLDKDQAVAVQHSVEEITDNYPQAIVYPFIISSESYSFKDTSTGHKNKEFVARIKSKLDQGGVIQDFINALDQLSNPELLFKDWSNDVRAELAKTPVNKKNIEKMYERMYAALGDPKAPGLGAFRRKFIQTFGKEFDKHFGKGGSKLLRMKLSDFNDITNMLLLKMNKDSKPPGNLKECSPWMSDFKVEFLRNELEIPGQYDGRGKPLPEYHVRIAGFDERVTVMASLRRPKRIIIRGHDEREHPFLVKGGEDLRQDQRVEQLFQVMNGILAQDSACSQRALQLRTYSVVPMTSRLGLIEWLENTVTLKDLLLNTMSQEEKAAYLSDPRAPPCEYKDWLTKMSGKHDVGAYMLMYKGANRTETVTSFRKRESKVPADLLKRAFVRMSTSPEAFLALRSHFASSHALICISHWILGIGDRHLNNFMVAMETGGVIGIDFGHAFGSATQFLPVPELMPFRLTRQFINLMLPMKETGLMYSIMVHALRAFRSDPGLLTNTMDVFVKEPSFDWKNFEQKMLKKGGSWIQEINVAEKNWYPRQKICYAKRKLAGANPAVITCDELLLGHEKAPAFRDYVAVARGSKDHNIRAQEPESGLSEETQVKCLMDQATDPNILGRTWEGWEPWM

Biological target: Apurinic/apyrimidinic endonuclease 1 (human (endogenous in HeLa)) (UniProt P27695)
Assay: co-IP; APE1 immunoprecipitated (anti-APE1, Abcam ab192) from HeLa WT cells, untreated or after TBHP 1 h and 1 h recovery, or after IR and 1 h recovery; immunoblot for DNA-PKcs

“DNA-dependent protein kinase catalytic subunit (from UniProt P78527 1-4128)” was tested, and the binding was “binds”.
